According to patent publication US20250326826A1:
No constants are given. Whether binding was seen depends on the method and setting. Each block holds one binder with its values, some of them ahead of it.

Target: Glutathione S Transferase
Experiment: ELISA, coated antigen

- binding: no binding
B1: Nb-F3 (VHH)
VHH: QVQLVESGGGLVQPGGSLRLSCAASGTEDGRLLTLGGSWFRQAPGQGLEAVAAIGAGDRGGATYYADSVKGRFTISRDNSKNTLYLQMNSLRAEDTAVYYCTALYERQPQLAATKVARKWGQGTLVTVSS

- binding: no binding
B2: Nb-V1 (VHH)
VHH: QVQLVESGGGLVQPGGSLRLSCAASGNSAEDRLYNSYTWFRQAPGQGLEAVAAISSHFSAGLTYYADSVKGRFTISRDNSKNTLYLQMNSLRAEDTAVYYCEITSHASHNDAWSTPRTVWGQGTLVTVSS
